# Measured values: PubChem BioAssay AID540276 (National Center for Advancing Translational Sciences (NCATS), 2011)
# “And” between values parts separate entries of the source, which are not always exact repeats. Equal entries are not always repeated. The campaign covered roughly 300,000 compounds. About 5,400 (1.8%) were called active. The inconclusive results got no clear call from the source; some entries with a clear call stand among them for comparison. Calls come from the whole dose curve; tested in HEK293 cells. Potencies beside an inconclusive call are fits to weak or partial responses and may not hold up.
# Assay: qHTS for inhibitors of binding or entry into cells for Marburg Virus
# Conditions: Marburg virus pseudotyped entry inhibition, cell reporter; activity change, negative = inhibition: at 37.8 µM (top of the series) unless noted
# % is set by controls: 0 for no effect and ±100 for the full control effect; potency is the fitted concentration of half-maximal effect.
SMILES,Potency,"activity change, negative = inhibition"
O=C(/C=C/c1ccc(Cl)cc1Cl)NCc1ccco1,"inconclusive: 0.231 µM [inhibitor, partial curve, poor fit]",–
COc1cccc(N2CCN(c3c4c(nc5nncn35)CCC4)CC2)c1,"inconclusive: 11.2 µM [inhibitor, single point]",–
COc1cc(C(=O)N/N=C/c2ccccn2)cc(OC)c1OC,"inconclusive: 1 µM [inhibitor, full curve]",–
CCC1CCCCN1S(=O)(=O)c1ccc(NC(=O)c2cc(=O)c3c(C)cc(C)cc3o2)cc1 (configuration not stated),–,inactive: -17.7% [at 46.1 µM]
CC(C)(C)C(=O)Nc1ccc(C(=O)N/N=C/c2ccccc2OC(=O)c2ccc(Cl)cc2Cl)cc1,"inconclusive: 35.5 µM [inhibitor, single point]",–
CCCn1c(C)cc(C(=O)COc2ccc(-c3nnco3)cc2)c1C,"inconclusive: 6.31 µM [activator, single point]",–
O=C(c1ccc(OC2CCN(CCc3ccccc3)CC2)cc1)N1CCCCC1CCCO (configuration not stated),"inconclusive: 6.31 µM [inhibitor, single point]",–
CC1CC(C)CN(CCCNC(=O)C2CCC(=O)N2C2CCCC2)C1 (configuration not stated),–,inactive: 5.97%
COc1cccc(NC(=O)c2ccc(NC(C)=O)cc2)c1,–,inactive: 12%
COc1cc(-c2nc(-c3ccc4c(c3)-c3ccccc3S4(=O)=O)c(-c3ccccc3)[nH]2)cc(OC)c1O,"inconclusive: 20.6 µM [inhibitor, partial curve, poor fit]",–
CC(NC(=O)Cn1nc(C(=O)O)c2ccccc2c1=O)c1ccccc1 (configuration not stated),"inconclusive: 1 µM [activator, partial curve, poor fit]",–
CC(C)CC(NC(=O)C1CCC(C)CC1)C(=O)NCCN1CCOCC1 (configuration not stated),"inconclusive: 35.5 µM [inhibitor, partial curve, poor fit]",–
O=C(c1cc(-c2ccco2)on1)N1CCOCC1,"inconclusive: 14.6 µM [activator, partial curve]",–
COc1ccc(S(=O)(=O)N2CCCCC2)cc1NC(=O)C1COc2ccccc2O1 (configuration not stated),active: 11.2 µM,–
O=c1[nH]c(CN2CCN(c3ccccc3)CC2)nc2ccccc12,"inconclusive: 1.26 µM [activator, single point]",–
Cc1cc(N2CCN(c3cccc(C)c3C)CC2)n2cnnc2n1,"inconclusive: 11.2 µM [inhibitor, single point]",–
CCN(CC)S(=O)(=O)c1ccc(C(=O)NN(C)C2=NS(=O)(=O)c3ccccc32)cc1,–,inactive: -0.118% [at 46.1 µM]
CC(C)C(=O)NCCc1nc2ccccc2n1CCCOc1ccc(Cl)cc1,"inconclusive: 15.8 µM [inhibitor, partial curve, poor fit]",–
COc1cccc(/C=N/n2c(=O)[nH]c3ccccc32)c1OC,"inconclusive: 2.91 µM [activator, full curve, poor fit]",–
CC(C)c1ccc(N(C(=O)CNC(=O)c2ccco2)C(C(=O)NC2CCCC2)c2cccnc2)cc1 (configuration not stated),"inconclusive: 14.1 µM [inhibitor, single point]",–
O=C(NNc1nc(N2CCOCC2)nc(N2CCOCC2)n1)c1ccccc1,–,inactive: -22.1%
CCN1CCN(c2cc(C)c3cc(NC(=S)N4CCCC(C)C4)ccc3n2)CC1 (configuration not stated),active: 7.94 µM,–
COc1ccc(OC)c(Cc2nnc(CCC(=O)NC(C3CC3)C3CC3)o2)c1,–,inactive: 33% [at 46.1 µM]

SMILES,Potency,"activity change, negative = inhibition"
Oc1ccc(F)c2cccnc12,"inconclusive: 12.6 µM [inhibitor, partial curve, poor fit]",–
O=C(NCCc1ccccc1)c1ccccc1Cl,active: 11.2 µM,–
CCn1nc(-c2ccccc2)c2nc3ccccc3nc21,–,inactive: 5.39%
Cc1cc(NCCCN2CCOCC2)n2nc(C)c(-c3ccccc3)c2n1,"inconclusive: 11.2 µM [inhibitor, partial curve, poor fit]",–
CCCCn1c(=O)cc(O)c2ccccc21,"inconclusive: 1.16 µM [activator, single point]",–
CCCCCSc1ncccc1C(=O)O,"inconclusive: 0.1 µM [inhibitor, full curve, poor fit]",–
S=C(Nc1ccccc1Cl)NC1CCN(Cc2ccccc2)CC1,"inconclusive: 2.24 µM [inhibitor, partial curve, poor fit]",–
COc1cccc(-c2noc(C3CCCN(C(=O)c4ccc(F)cc4)C3)n2)c1 (configuration not stated),"inconclusive: 35.5 µM [inhibitor, single point]",–
O=C(C=P(c1ccccc1)(c1ccccc1)c1ccccc1)c1ccccc1-c1ccccc1C(=O)C=P(c1ccccc1)(c1ccccc1)c1ccccc1,"inconclusive: 2 µM [inhibitor, full curve, poor fit]",–
O=C(Oc1c(-c2ccccc2)oc2ccccc2c1=O)c1ccccc1,–,inactive: -21.6%
COC(=O)c1oc2c(c1C)C(=O)CCC2,"inconclusive: 12.6 µM [inhibitor, partial curve, poor fit]",–
CC(C)NCC(O)COc1ccc(Br)cc1 (configuration not stated),"inconclusive: 11.2 µM [inhibitor, partial curve, poor fit]",–
Cc1cc(C(F)(F)F)c(C#N)c(SCC(=O)Nc2nc3ccccc3s2)n1,active: 4.47 µM,–
O=C(Nc1ncccc1O)c1ccc(NS(=O)(=O)c2ccc3[nH]c(=O)[nH]c3c2)cc1,–,inactive: 5.11%
CCc1nc2nc(C)cc(Nc3cc(Cl)ccc3C)n2n1,–,inactive: -1.24% [at 46.1 µM]
CCOC(=O)N1CCN(S(=O)(=O)c2ccc(C(=O)Nc3nc4c(s3)CC(C)CC4)cc2)CC1 (configuration not stated),"inconclusive: 1.26 µM [inhibitor, full curve, poor fit]",–
CCCCCCCC/C=C\CCCCCCCC(=O)NCCc1ccc(O)c(O)c1,active: 4.47 µM,–
CCN(CC)S(=O)(=O)c1cccc(C(=O)N[C@H](C(=O)NC2=NCCS2)C(C)C)c1,"inconclusive: 35.5 µM [inhibitor, single point]",–
Cc1cc(/C=C2\C(=O)NC(=O)N(c3ccc(Cl)cc3)C2=O)c(C)n1-c1sc2c(c1C#N)CCCC2,–,inactive: 0.988%
O=C(c1ccccc1)c1ccc(OCC(O)CN2CCCC2)cc1 (configuration not stated),–,inactive: -24% [at 46.1 µM]
COc1ccc(Br)cc1C(=O)Nc1cccc2ccc(C)nc12,–,inactive: 8.2% [at 46.1 µM]
COc1ccc(-c2noc(N(c3ccc(F)c(Cl)c3)c3nc(-c4ccc(OC)c(OC)c4)no3)n2)cc1OC,–,inactive: -0.109% [at 46.1 µM]
CCS(=O)(=O)CCSC1OC(COC(C)=O)C(OC(C)=O)C(OC(C)=O)C1OC(C)=O (configuration not stated),–,inactive: 0.817% [at 46.1 µM]

SMILES,Potency,"activity change, negative = inhibition"
CN(C)c1ccc(NC(=O)Nc2csc3ccccc23)cc1,"inconclusive: 35.5 µM [activator, single point]",–
O=C(CSc1ncn[nH]1)Nc1ccc(OCc2ccccc2)cc1,–,inactive: 1.34% [at 46.1 µM]
COc1ccc(C)cc1NC(=O)C(OC(=O)c1cccc(S(=O)(=O)N(C)c2ccccc2)c1)c1ccccc1 (configuration not stated),"inconclusive: 0.708 µM [inhibitor, full curve, poor fit]",–
CCN1C(=O)[C@@H]2[C@H]3[C@H](O)[C@H](O)CC(=NO[C@@H](C)c4cn([C@H](CO)Cc5ccccc5)nn4)[C@@H]3CC[C@H]2C1=O,–,inactive: -3.27% [at 14.2 µM]
CCc1ccc(CNc2ccc3c(c2)ncn3CC)cc1,"inconclusive: 6.31 µM [activator, single point]",–
COC(=O)CC1C(=O)NCCN1C(=O)CSc1nc2ccccc2s1 (configuration not stated),"inconclusive: 35.5 µM [activator, single point]",–
C=CCn1c(SCc2ccc(C(=O)Nc3nccs3)cc2)nnc1-c1ccc(C)c(Cl)c1,"inconclusive: 8.91 µM [inhibitor, partial curve, poor fit]",–
Cc1cccc(NC(=O)Nc2ccc(F)cc2)n1,"inconclusive: 2.24 µM [activator, partial curve, poor fit] and inconclusive: 35.5 µM [activator, single point]",–
Cc1nc2cc(C(=O)O)ccc2s1,"inconclusive: 25.9 µM [activator, partial curve, poor fit]",–
CC(=O)c1c(C)[nH]c(C(=O)OCCOc2ccccc2)c1C,"inconclusive: 4.47 µM [inhibitor, full curve, poor fit]",–
O=C(Nn1c(C2CCCCC2)nc2ccccc2c1=O)c1ccc(Cl)c([N+](=O)[O-])c1,"inconclusive: 25.1 µM [inhibitor, partial curve, poor fit]",–
CCCCN(C)CCNC(=O)c1ccc(Cn2c(=O)[nH]c3cc(OC)c(OC)cc3c2=O)cc1,"inconclusive: 35.5 µM [activator, single point]",–
CCOc1ccc(-c2cn(S(=O)(=O)c3cccc4nsnc34)nc2N)cc1,"inconclusive: 1.78 µM [inhibitor, partial curve, poor fit]",–
CCOC(=O)N1CCC(NC(=O)CCC(=O)N2CCOc3ccccc32)CC1,–,inactive: 7.88%
COc1cc(C(=O)NNc2nc3cc4c(cc3s2)OCO4)cc(OC)c1OC,"inconclusive: 1.64 µM [inhibitor, partial curve, poor fit]",–
Fc1ccc(-c2nnn(Cc3nc4ccccc4s3)n2)cc1,–,inactive: -0.946%
Cc1ccc(N(CC(=O)NCCc2ccccc2C)S(=O)(=O)N(C)C)cc1,"inconclusive: 8.91 µM [inhibitor, partial curve, poor fit]",–
CC(C)CN1CC(C)C(=O)N(c2ccccc2)C1=S (configuration not stated),–,inactive: 0.536% [at 46.1 µM]
CCCCOc1ccc(C(CC(=O)NC)C(=O)O)cc1 (configuration not stated),"inconclusive: 0.164 µM [inhibitor, full curve, poor fit]",–
COc1cccc(OCC(Cn2c(C)nc3ccccc32)OC(C)=O)c1 (configuration not stated),"inconclusive: 8.91 µM [inhibitor, partial curve, poor fit]",–
CCS(=O)(=O)c1nc2ccccc2n1CC(=O)N1CCCCC1,"inconclusive: 0.112 µM [inhibitor, full curve, poor fit]",–

# Retrieved one by one from the list above:
SMILES,Potency,"activity change, negative = inhibition"
O=C(c1ccc(OC2CCN(CCc3ccccc3)CC2)cc1)N1CCCCC1CCCO (configuration not stated),"inconclusive: 6.31 µM [inhibitor, single point]",–
CCN(CC)S(=O)(=O)c1ccc(C(=O)NN(C)C2=NS(=O)(=O)c3ccccc32)cc1,–,inactive: -0.118% [at 46.1 µM]
COc1ccc(-c2noc(N(c3ccc(F)c(Cl)c3)c3nc(-c4ccc(OC)c(OC)c4)no3)n2)cc1OC,–,inactive: -0.109% [at 46.1 µM]
O=C(c1ccccc1)c1ccc(OCC(O)CN2CCCC2)cc1 (configuration not stated),–,inactive: -24% [at 46.1 µM]
